Measured data: PubChem BioAssay AID1259405 (NCATS, 2018)

Assay: 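Mouse-designed siRNAs used to find CHO productivity engineering targets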 (primary screen)
System: Chinese hamster CHO-K1 ovary cells with stable secreted eGFP expression
Reagents: single siRNA against mouse genes, 0.8 pmol siRNA per well (2 µl of 400 nM stock)
Time to read-out: 3 days
Detection: 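Percent of the per-plate non-targeting control median for intracellular GFP per well by laser scanning cytometry and for cell viability by ATP luminescence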
Scale: GFP, % of control: higher = more GFP per well, higher productivity; viability (ATP), % of control: higher = more viable cells (more ATP)
Hit rule: 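a knock-down is called active if GFP reaches 120% or more of non-targeting control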
Here is one part, drawn at random, of about 50,000 reagents. Over the whole deposit, about 4,000 (8%) are marked active. 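Mouse siRNA library applied to hamster cells; one well for each siRNA.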 Unmarked entries are inactive.

Gene	PubChem SID	GFP, % of control	viability (ATP), % of control
Dclk1 (doublecortin-like kinase 1)	SID363572338	53.5	47.8
Dclk1 (doublecortin-like kinase 1)	SID363574098	76.6	83.7
Ubb (ubiquitin B)	SID363553922	50.2	74.1
Ubb (ubiquitin B)	SID363561879	106	65.9
Ubb (ubiquitin B)	SID363565617	74.9	77.8
Ms4a6c (membrane-spanning 4-domains, subfamily A, member 6C)	SID363544182	87.6	73.8
Ms4a6c (membrane-spanning 4-domains, subfamily A, member 6C)	SID363550510	73.4	72.8
Ms4a6c (membrane-spanning 4-domains, subfamily A, member 6C)	SID363557059	57.4	90.8
Ube2t (ubiquitin-conjugating enzyme E2T)	SID363572612	85.2	73.1
Ube2t (ubiquitin-conjugating enzyme E2T)	SID363577892	106	68.5
Ube2t (ubiquitin-conjugating enzyme E2T)	SID363582116	108	119
Or4c1 (olfactory receptor family 4 subfamily C member 1)	SID363554184	39.2	36.4
Or4c1 (olfactory receptor family 4 subfamily C member 1)	SID363567631	66.7	76
Or4c1 (olfactory receptor family 4 subfamily C member 1)	SID363584988	58.1	76.7
Proser2 (proline and serine rich 2)	SID363552326	110	66.5
Proser2 (proline and serine rich 2)	SID363585462	77.6	83.5
Proser2 (proline and serine rich 2)	SID363585813	95.7	119
S1pr3 (sphingosine-1-phosphate receptor 3)	SID363571328	100	104
S1pr3 (sphingosine-1-phosphate receptor 3)	SID363571680	99.8	78.2
S1pr3 (sphingosine-1-phosphate receptor 3)	SID363572032	57	83.1
Eml4 (echinoderm microtubule associated protein like 4)	SID363581714	100	90.1
Eml4 (echinoderm microtubule associated protein like 4)	SID363589208	98.8	76.8
Vmn1r178 (vomeronasal 1 receptor 178)	SID363544901	104	41.8
Vmn1r178 (vomeronasal 1 receptor 178)	SID363551229	69.5	59.8
Vmn1r178 (vomeronasal 1 receptor 178)	SID363557778	82.2	88.9
Pgap1 (post-GPI attachment to proteins 1)	SID363547556	135 (active)	114
Pgap1 (post-GPI attachment to proteins 1)	SID363558325	125 (active)	75.7
Pgap1 (post-GPI attachment to proteins 1)	SID363560083	75.2	63.7
Gpn1 (GPN-loop GTPase 1)	SID363569199	81.4	90.3
Gpn1 (GPN-loop GTPase 1)	SID363583631	98.2	105
Riok2 (RIO kinase 2)	SID363570746	46.1	52.3
5031410I06Rik (RIKEN cDNA 5031410I06 gene)	SID363552271	70	77.4
5031410I06Rik (RIKEN cDNA 5031410I06 gene)	SID363585407	71.9	62.5
5031410I06Rik (RIKEN cDNA 5031410I06 gene)	SID363585758	144 (active)	100
Nrgn (neurogranin)	SID363581964	99.5	93.5
Nrgn (neurogranin)	SID363589458	87	115
Atg2a (autophagy related 2A)	SID363546960	50	47.7
Atg2a (autophagy related 2A)	SID363549772	69.1	74
Atg2a (autophagy related 2A)	SID363587826	128 (active)	132
Tmem87a (transmembrane protein 87A)	SID363542840	59.2	39.4
Tmem87a (transmembrane protein 87A)	SID363546357	76	61.3
Tmem87a (transmembrane protein 87A)	SID363548113	77.9	80.8
Bhlhe22 (basic helix-loop-helix family, member e22)	SID363555270	67.3	73.8
Bhlhe22 (basic helix-loop-helix family, member e22)	SID363563931	69.5	80.3
Bhlhe22 (basic helix-loop-helix family, member e22)	SID363587477	98.9	116
Maff (Maf bZIP transcription factor F)	SID363541117	57.5	55.5
Maff (Maf bZIP transcription factor F)	SID363555744	63	82.1
Maff (Maf bZIP transcription factor F)	SID363566033	62.7	77.9
Anks4b (ankyrin repeat and sterile alpha motif domain containing 4B)	SID363539879	54.7	65.2
Anks4b (ankyrin repeat and sterile alpha motif domain containing 4B)	SID363561180	84.5	88.8
Anks4b (ankyrin repeat and sterile alpha motif domain containing 4B)	SID363564216	84.5	87.7
Pla2g5 (phospholipase A2, group V)	SID363569519	57.5	76
Pla2g5 (phospholipase A2, group V)	SID363577263	72.2	70.7
Pla2g5 (phospholipase A2, group V)	SID363578671	80.9	78.4
Treml1 (triggering receptor expressed on myeloid cells-like 1)	SID363556266	94	56.1
Treml1 (triggering receptor expressed on myeloid cells-like 1)	SID363586716	91.8	74.8
Treml1 (triggering receptor expressed on myeloid cells-like 1)	SID363588824	44.4	46.7
Tor1aip2 (torsin A interacting protein 2)	SID363540305	71.2	84.2
Tor1aip2 (torsin A interacting protein 2)	SID363542057	72.4	46
Tor1aip2 (torsin A interacting protein 2)	SID363542965	54	42.4
Tor1aip2 (torsin A interacting protein 2)	SID363546482	69.6	80.8
Tor1aip2 (torsin A interacting protein 2)	SID363548238	52.4	53.9
Tor1aip2 (torsin A interacting protein 2)	SID363566973	142 (active)	62.6
Rab33a (RAB33A, member RAS oncogene family)	SID363570327	80.4	98.8
Rab33a (RAB33A, member RAS oncogene family)	SID363576663	41.1	59.3
Rab33a (RAB33A, member RAS oncogene family)	SID363579831	49.2	70.9
Fpr-rs7 (formyl peptide receptor, related sequence 7)	SID363544348	83.1	85.3
Fpr-rs7 (formyl peptide receptor, related sequence 7)	SID363550676	78.7	86.2
Fpr-rs7 (formyl peptide receptor, related sequence 7)	SID363557225	51.4	78.6
Pxt1 (peroxisomal, testis specific 1)	SID363555118	84.8	75.4
Pxt1 (peroxisomal, testis specific 1)	SID363568565	30.2	39.8
Pxt1 (peroxisomal, testis specific 1)	SID363586624	66.2	88.8
Vstm2b (V-set and transmembrane domain containing 2B)	SID363543725	83.8	82
Vstm2b (V-set and transmembrane domain containing 2B)	SID363551461	115	93.4
Vstm2b (V-set and transmembrane domain containing 2B)	SID363559066	46.5	62.2
Cpne3 (copine III)	SID363582633	84.5	107
Cpne3 (copine III)	SID363584393	44.9	53.8
Htr5b (5-hydroxytryptamine (serotonin) receptor 5B)	SID363544205	85.1	68.7
Htr5b (5-hydroxytryptamine (serotonin) receptor 5B)	SID363550533	59.8	67.9
Htr5b (5-hydroxytryptamine (serotonin) receptor 5B)	SID363557082	54.9	65.1
Cisd2 (CDGSH iron sulfur domain 2)	SID363540648	84	85
Cisd2 (CDGSH iron sulfur domain 2)	SID363543099	89.5	93.9
Cisd2 (CDGSH iron sulfur domain 2)	SID363552592	95.1	64.3
C9 (complement component 9)	SID363553581	87.4	79.4
C9 (complement component 9)	SID363561538	65.3	23
C9 (complement component 9)	SID363565276	76	68.1

Reagents above marked active (5):
Gene	PubChem SID	GFP, % of control	viability (ATP), % of control
Pgap1 (post-GPI attachment to proteins 1)	SID363547556	135 (active)	114
Pgap1 (post-GPI attachment to proteins 1)	SID363558325	125 (active)	75.7
5031410I06Rik (RIKEN cDNA 5031410I06 gene)	SID363585758	144 (active)	100
Atg2a (autophagy related 2A)	SID363587826	128 (active)	132
Tor1aip2 (torsin A interacting protein 2)	SID363566973	142 (active)	62.6
